Reference: patent US20110059051A1
Results are given in words; binding and its absence hold for the method and conditions named. Binding seen in cells or lysates may run through a third protein. Some entries that bind do so weakly or less than the wild type. For some assays here: Where a sequence is shown, tags or fusion partners need not be part of it.

By UniProt entry, the sequences of proteins in these tests, tags left out. Where a name states a change or a piece, a line headed by the entry shows the natural chain unless it says otherwise.
UniProt A2A935: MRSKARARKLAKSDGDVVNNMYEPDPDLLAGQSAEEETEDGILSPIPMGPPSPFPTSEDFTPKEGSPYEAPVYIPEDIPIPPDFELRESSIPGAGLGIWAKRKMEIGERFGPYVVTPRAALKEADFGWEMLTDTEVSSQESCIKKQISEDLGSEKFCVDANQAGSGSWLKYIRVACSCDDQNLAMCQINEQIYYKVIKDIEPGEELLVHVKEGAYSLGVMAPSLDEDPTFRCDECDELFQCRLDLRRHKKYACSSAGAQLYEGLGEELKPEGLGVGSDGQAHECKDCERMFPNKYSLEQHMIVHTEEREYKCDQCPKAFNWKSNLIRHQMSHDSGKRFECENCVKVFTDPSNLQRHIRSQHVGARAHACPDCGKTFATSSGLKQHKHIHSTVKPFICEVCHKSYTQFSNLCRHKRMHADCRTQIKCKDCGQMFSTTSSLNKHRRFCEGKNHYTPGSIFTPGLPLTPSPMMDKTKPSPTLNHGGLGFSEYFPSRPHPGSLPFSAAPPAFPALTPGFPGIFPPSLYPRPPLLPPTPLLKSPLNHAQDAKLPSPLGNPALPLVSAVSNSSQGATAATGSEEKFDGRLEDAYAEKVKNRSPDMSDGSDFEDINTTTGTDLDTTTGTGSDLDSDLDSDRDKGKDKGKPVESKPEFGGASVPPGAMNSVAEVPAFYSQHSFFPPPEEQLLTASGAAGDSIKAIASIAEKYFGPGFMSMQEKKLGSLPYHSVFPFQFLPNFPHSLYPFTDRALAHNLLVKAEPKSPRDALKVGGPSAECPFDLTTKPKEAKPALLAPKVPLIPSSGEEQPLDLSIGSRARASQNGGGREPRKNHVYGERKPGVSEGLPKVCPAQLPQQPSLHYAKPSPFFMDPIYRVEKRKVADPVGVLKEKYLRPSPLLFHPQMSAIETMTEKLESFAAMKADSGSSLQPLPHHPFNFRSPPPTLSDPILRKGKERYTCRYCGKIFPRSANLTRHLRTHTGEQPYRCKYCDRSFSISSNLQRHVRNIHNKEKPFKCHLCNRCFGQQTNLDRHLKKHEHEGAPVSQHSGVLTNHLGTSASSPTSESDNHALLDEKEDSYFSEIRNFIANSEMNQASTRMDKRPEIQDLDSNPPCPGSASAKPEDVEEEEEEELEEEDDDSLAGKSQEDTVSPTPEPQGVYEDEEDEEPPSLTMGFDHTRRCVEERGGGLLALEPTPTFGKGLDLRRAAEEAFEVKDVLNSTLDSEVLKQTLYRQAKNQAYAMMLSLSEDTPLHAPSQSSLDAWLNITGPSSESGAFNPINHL

Assays:
[1] = biological target: T1, endogenous PGC-1α protein in brown adipocytes (mouse) (UniProt O70343); experiment: co-immunoprecipitation from brown adipocytes (flag-M2 agarose IP, anti-PGC-1α blot)
T1 sequence (looked up): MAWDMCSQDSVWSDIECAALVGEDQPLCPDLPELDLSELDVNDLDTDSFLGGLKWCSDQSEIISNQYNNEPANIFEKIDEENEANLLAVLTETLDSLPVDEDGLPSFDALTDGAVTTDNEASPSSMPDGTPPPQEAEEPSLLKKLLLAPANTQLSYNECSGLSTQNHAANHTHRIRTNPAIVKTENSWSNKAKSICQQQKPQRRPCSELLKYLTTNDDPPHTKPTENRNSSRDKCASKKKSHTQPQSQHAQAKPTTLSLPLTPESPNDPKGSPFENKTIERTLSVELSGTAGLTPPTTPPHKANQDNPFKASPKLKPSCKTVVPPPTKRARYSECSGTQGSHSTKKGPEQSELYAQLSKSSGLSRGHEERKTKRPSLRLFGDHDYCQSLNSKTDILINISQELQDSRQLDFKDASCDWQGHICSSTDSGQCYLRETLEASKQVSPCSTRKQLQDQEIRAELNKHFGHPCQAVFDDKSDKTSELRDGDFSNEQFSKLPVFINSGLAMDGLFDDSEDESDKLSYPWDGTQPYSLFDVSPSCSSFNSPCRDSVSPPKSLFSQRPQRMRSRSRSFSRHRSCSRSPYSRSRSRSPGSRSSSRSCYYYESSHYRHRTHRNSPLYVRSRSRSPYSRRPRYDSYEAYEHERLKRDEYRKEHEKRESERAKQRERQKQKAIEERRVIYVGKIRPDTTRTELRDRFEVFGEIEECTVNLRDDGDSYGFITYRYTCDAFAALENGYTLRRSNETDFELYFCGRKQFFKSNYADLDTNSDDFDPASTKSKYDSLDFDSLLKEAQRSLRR

HA-PGC-1α = biological target: T2, HA-PGC-1α (UniProt O70343); experiment: co-immunoprecipitation from cos7 cells
T2 sequence (looked up): T1 sequence (looked up)

[2] = biological target: T1, endogenous PGC-1α protein in brown adipocytes (mouse); experiment: co-immunoprecipitation of Flag-PRDM16 from brown fat preadipocytes, Western blot for PGC-1α
[3] = biological target: T3, GST-PGC-1α region 590-797 (UniProt O70343); experiment: GST pull-down with GST-PGC-1α fragments, 35S-labeled PRDM16
T3 sequence (looked up): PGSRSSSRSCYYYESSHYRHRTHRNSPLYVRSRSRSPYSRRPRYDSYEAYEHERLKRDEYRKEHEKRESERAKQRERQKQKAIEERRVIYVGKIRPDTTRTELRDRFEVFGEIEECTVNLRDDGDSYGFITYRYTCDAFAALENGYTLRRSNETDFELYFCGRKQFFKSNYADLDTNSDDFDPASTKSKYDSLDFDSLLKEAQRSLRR

[4] = biological target: T4, GST-PGC-1α region 250-400 (UniProt O70343); experiment: as above
T4 sequence (looked up): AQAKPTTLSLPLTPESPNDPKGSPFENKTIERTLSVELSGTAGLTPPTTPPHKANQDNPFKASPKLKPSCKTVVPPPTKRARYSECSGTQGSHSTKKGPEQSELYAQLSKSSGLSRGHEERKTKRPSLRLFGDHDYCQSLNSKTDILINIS

| Substance | binding [1] | binding (HA-PGC-1α) | binding [2] | binding [3] | binding [4] |
| --- | --- | --- | --- | --- | --- |
| Flag-PRDM16 (full-length mouse PRDM16 with N-terminal FLAG tag) (from UniProt A2A935 1-1275) | binds | binds | binds | – | – |
| 35S-labeled in vitro translated PRDM16 protein (from UniProt A2A935 1-1275) | – | – | – | binds | binds |
